Results from article PMC12040169 (PLOS Biology, 2025).
The other results are listed elsewhere or left out.

Each compound was assayed on T1, CTL2-GFP (C. trachomatis L2/434/Bu, GFP-expressing). Conditions: bulk GFP, single well; 28.5 h, 10 µM; inhibitor.
T1 construct: L2/434/Bu, GFP-expressing
Set-up: species or system HeLa; Intracellular C. trachomatis growth in HeLa cells, bulk GFP fluorescence relative to DMSO
In the case of `O=C(c1[nH]nc(O)c1Cc1c(Cl)cccc1Cl)N1CCOCC1` [CBK107228], the “% of control remaining” value is reported as 101.693%. In the case of `COc1cc(/C=N/NC(=O)CCn2c3ccc(Cl)cc3c3cc(Cl)ccc32)ccc1O` [CBK262351], the “% of control remaining” value is reported as 103.466%. In the case of `CC(=O)N1CCN(C(=O)C[C@@H]2C[C@@H](C(C)C)[C@H](CNC(=O)c3cccnc3)C=C2C)CC1` [CBK289046], the “% of control remaining” value is reported as 119.826%. In the case of `Cn1ccc(C(=O)N2CCOC(c3nc(C(C)(C)C)n[nH]3)C2)cc1=O` (stereo not shown) [CBK305201], the “% of control remaining” value is reported as 104.29%. With `CC(=O)NCC(=O)N1CC[C@@H]2NC(=O)CNC(=O)C3(CCCC[C@H]2C1)CCN(C(C)=O)CC3` [CBK292014] the “% of control remaining” value was 119.014%. For `COC(=O)C1CC(O)CN1S(=O)(=O)c1cccs1` (stereo not shown) [CBK086668], the “% of control remaining” value was 114.061%. `CC(=O)N(C)c1ccc(NS(=O)(=O)c2cc(C)c(Cl)cc2C)cc1` [CBK045298] was tested, and the “% of control remaining” value was 63.6927%. With `Clc1ccc(CN2CCC(Oc3nccnc3OCCN3CCOCC3)CC2)cc1` [CBK082918T] the “% of control remaining” value was 111.755%. For `Cc1cc(C(=O)O)c(NC(=O)c2cccc(Cl)c2)s1` [CBK126813], the “% of control remaining” value was 126.894%. In the case of `O=C(NCc1ccc(F)cc1)c1cc(Br)cnc1N1CCOCC1` [CBK076246], the “% of control remaining” value is reported as 166.844%. `O=C(Nc1ccc2c(c1)OCCO2)N1CCCCC1CO` (stereo not shown) [CBK156178] was tested, and the “% of control remaining” value was 108.583%. For `Nc1ccc(Oc2ccc(-n3c(=O)c4cc5c(=O)n(-c6ccc(Oc7ccc(N)cc7)cc6)c(=O)c5cc4c3=O)cc2)cc1` [CBK261489], the “% of control remaining” value was 100%. For `Cc1ccc(C2C=C(c3ccccc3)Nc3nc(N4C(=O)CCC4=O)nn32)cc1` (stereo not shown) [CBK266197], the “% of control remaining” value was 168.068%. In the case of `Cc1cccc2c(C(=O)OCC(=O)c3ccc([N+](=O)[O-])cc3)cc(-c3ccc(Cl)cc3)nc12` [CBK264088], the “% of control remaining” value is reported as 112.018%. In the case of `COc1ccc(Cl)cc1N1CCN(Cc2ccc3ccccc3c2)CC1` [CBK126414], the “% of control remaining” value is reported as 103.026%. For `Cc1nc2cc(OCc3ccc(-c4nccnc4-c4nnn[nH]4)cc3)ccc2s1` [CBK050820], the “% of control remaining” value was 156.586%. For `CN1CCC(C(=O)N2CCN(c3ccccc3)CC2)CC1` [CBK200211], the “% of control remaining” value was 174.833%. With `CN(C)c1ccccc1-c1cc(NC2CCCCC2)ncn1` [CBK037041] the “% of control remaining” value was 157.521%. `N#CCCN(C(=O)NCc1cccc(C(F)(F)F)c1)C1CCCCC1` [CBK156350] was tested, and the “% of control remaining” value was 115.936%. With `CN(C)c1nc(NC2CC2)nc(Oc2ccc(=O)n(-c3ccccc3)n2)n1` [CBK270187] the “% of control remaining” value was 94.2113%. In the case of `Cc1cccc(OCCN2C(=O)CC(Cc3cnn(C)c3)C2=O)c1` (stereo not shown) [CBK304081], the “% of control remaining” value is reported as 113.708%. For `Cc1nnc(SCC(=O)Nc2nnc(C(C)C)s2)[nH]c1=O` [CBK022107], the “% of control remaining” value was 139.884%. `COc1cc2c(cc1-c1cn(CCc3n[nH]c(=O)[nH]3)nn1)CCC2` [CBK307112] was tested, and the “% of control remaining” value was 122.477%. For `C[C@H](Nc1nccnc1-c1ccsc1)c1ccccc1` [CBK088716], the “% of control remaining” value was 135.243%. For `O=C(O)c1ccc(NS(=O)(=O)c2ccccc2)cc1O` [CBK023181], the “% of control remaining” value was 121.916%. For `Cc1cc(C)nc(NCc2cnn(C)c2C)n1` [CBK306276], the “% of control remaining” value was 100.634%. With `Cc1ccc(N(CC(=O)Nc2ccccc2F)S(=O)(=O)c2ccc(F)cc2)cc1` [CBK263333] the “% of control remaining” value was 115.752%. For `CC(=O)N1CCN(C(=O)C2C(C(=O)O)C2(C)C)CC1` (stereo not shown) [CBK287021], the “% of control remaining” value was 117.607%. With `COc1cccc(C(=O)N2CCCC(c3cc4cnccc4[nH]3)C2)c1` (stereo not shown) [CBK285417] the “% of control remaining” value was 97.6855%. In the case of `Cc1noc(C)c1C(=O)N1CCC2(CC1)CC(=O)c1ccc(OCc3ccccc3)c(C)c1O2` [CBK156506], the “% of control remaining” value is reported as 79.6778%. In the case of `Cc1ccccc1C(NC(=O)C1CCN(C/C=C/c2ccccc2)CC1)c1ncccc1C` (stereo not shown) [CBK147980], the “% of control remaining” value is reported as 151.282%. `CC(C)=NOc1ncccc1C#N` [CBK007841] was tested, and the “% of control remaining” value was 91.5015%. For `C=CCn1cc(CN2CCCC(O)(c3ccc(F)cc3)CC2)c(C)n1` (stereo not shown) [CBK285144], the “% of control remaining” value was 130.299%. With `O=C(Cn1ncc2ccccc2c1=O)NNC(=S)Nc1ccc2c(c1)OCO2` [CBK268751] the “% of control remaining” value was 129.745%. In the case of `Cc1nccn1CC(C)CNc1ccc(C(=O)c2ccccc2)cc1[N+](=O)[O-]` (stereo not shown) [CBK298336], the “% of control remaining” value is reported as 150.274%. For `Cc1ccc2[nH]c(=O)c(CN(Cc3ccccc3)C(=O)NC3CCCCC3)cc2c1` [CBK068704], the “% of control remaining” value was 111.684%. With `NNC(=O)CCc1ccccc1O` [CBK261214] the “% of control remaining” value was 100%. In the case of `CN1CCC2(CC1)CC(NC(=O)C1CCCCC1)c1ccccc1O2` (stereo not shown) [CBK282635], the “% of control remaining” value is reported as 112.993%. In the case of `O=C(O)CN(c1ccc2c(c1)OCCO2)S(=O)(=O)c1ccccc1` [CBK268017], the “% of control remaining” value is reported as 103.331%. For `Cc1nn(CC(=O)N2CCCC2)c(=O)c2cc3sccc3n12` [CBK284024], the “% of control remaining” value was 124.959%. For `Cc1cc([N+](=O)[O-])cc2c1NC(=O)C2(O)N1CCOCC1` (stereo not shown) [CBK262475], the “% of control remaining” value was 91.9061%. In the case of `Cc1nnc(CCNC2CCN(c3ncnc4c(C)csc34)CC2)s1` [CBK307574], the “% of control remaining” value is reported as 141.662%. With `OCCNc1cncc(-c2ccc3c(c2)OCO3)n1` [CBK065979] the “% of control remaining” value was 81.1347%. For `Nn1cnnc1SC1CCCCC1NS(=O)(=O)c1ccccc1` (stereo not shown) [CBK266361], the “% of control remaining” value was 193.617%. For `Cc1cc(-c2cc(C(=O)NN3CCN(C)CC3)c3cc(Cl)ccc3n2)c(C)s1` [CBK267738], the “% of control remaining” value was 102.18%. For `O=c1[nH]c(=O)c2cc(S(=O)(=O)Nc3cccc(CCc4ccccn4)c3)ccc2[nH]1` [CBK286389], the “% of control remaining” value was 121.623%. In the case of `O=C1Nc2ccc(-c3ccc(Cl)cc3)cc2C(=O)N2CCN(C(=O)c3cccnc3)C[C@H]12` [CBK289590], the “% of control remaining” value is reported as 127.396%. In the case of `CC(=O)c1ccc(-c2ccc(/C=C\c3[nH]c(=O)[nH]c(=O)c3[N+](=O)[O-])o2)cc1` [CBK267038], the “% of control remaining” value is reported as 160.836%. With `O=C(C1CC1)N1CC2CCCC(C1)C2(O)c1cccnc1F` (stereo not shown) [CBK282889] the “% of control remaining” value was 113.469%. With `CC1=C(C)CC(C(=O)Nc2sc3c(c2C(=O)OC(C)C)CCCC3)C(C(=O)O)C1` (stereo not shown) [CBK265428] the “% of control remaining” value was 130.98%. In the case of `CN(CC(=O)NCc1ccc2c(c1)OCO2)Cc1ccc(Br)s1` [CBK295185], the “% of control remaining” value is reported as 153.12%. `O=C(Nc1nccs1)c1cc(C2CCN(C(=O)CC3CCCCC3)C2)nc2ccccc12` (stereo not shown) [CBK285586] was tested, and the “% of control remaining” value was 20.7646%. With `CC(=O)Oc1ccc(-c2cccc(C(=O)NCC(=O)O)c2)cc1` [CBK263828] the “% of control remaining” value was 100%. `O=C1c2ccc(-c3nc4ccc(Cl)cc4c(=O)o3)cc2C(=O)N1Cc1cccnc1` [CBK268460] was tested, and the “% of control remaining” value was 107.634%. In the case of `COc1ccc(C(=O)NC2CCCNC2=O)s1` (stereo not shown) [CBK282938], the “% of control remaining” value is reported as 142.343%. With `O=C(NCC1(O)CCSC1)c1c[nH]nc1-c1cc2ccccc2o1` (stereo not shown) [CBK306159] the “% of control remaining” value was 102.918%. With `CCOC(=O)N1CCC(NC(=O)c2ccc(Nc3cncc(-c4ccc(O)cc4)n3)cc2)CC1` [CBK115694] the “% of control remaining” value was 117.058%. `NC(=O)OC(c1ccccc1[N+](=O)[O-])P(=O)(c1ccccc1)c1ccccc1` (stereo not shown) [CBK261383] was tested, and the “% of control remaining” value was 106.894%. With `Nc1nnc(SCC(=O)c2ccc3ccccc3c2)s1` [CBK266120] the “% of control remaining” value was 174.455%. `COCC(C)NC(=O)C1CCCN(S(=O)(=O)c2ccc(OC)c(C)c2)C1` (stereo not shown) [CBK270242] was tested, and the “% of control remaining” value was 142.412%. For `Cn1nccc1C(=O)C1CCN(C(=O)c2cccc(F)c2)CC1` [CBK284426], the “% of control remaining” value was 117.481%. For `O=C(CCc1nc(=O)c2c3c(sc2[nH]1)CCC3)N1CCCCCC1` [CBK306388], the “% of control remaining” value was 106.828%. In the case of `N#Cc1c(Oc2cccc3cccnc23)cccc1C(F)(F)F` [CBK002728], the “% of control remaining” value is reported as 107.895%. With `CC(C)(CO)Cn1c(=O)[nH]c2ncc(-c3ccc(F)c(Cl)c3)nc21` [CBK064737] the “% of control remaining” value was 119.851%. `CS(=O)(=O)N1CCN(CC(O)Cn2c3ccc(Cl)cc3c3cc(Cl)ccc32)CC1` (stereo not shown) [CBK264381] was tested, and the “% of control remaining” value was 114.427%. In the case of `O=C(CSC1c2ccccc2Oc2ccccc21)Nc1cccc(C(=O)O)c1` [CBK266566], the “% of control remaining” value is reported as 143.639%. In the case of `COc1cc(-c2nccnc2NCCc2c[nH]c3ccccc23)cc(OC)c1OC` [CBK038015], the “% of control remaining” value is reported as 217.485%. In the case of `COc1ccc(CCNC(=O)[C@@H]2Cc3c([nH]c4ccccc34)[C@]3(CCN(Cc4ccccc4)C3)N2)cc1OC` [CBK062620], the “% of control remaining” value is reported as 66.4287%. `COc1ccc(C(C)C)cc1-c1cncc(N2CCC(C(=O)O)CC2)n1` [CBK037900] was tested, and the “% of control remaining” value was 102.347%. For `Cn1ncc2c(=O)n(Cc3noc(-c4ccco4)n3)cnc21` [CBK305053], the “% of control remaining” value was 115.003%. In the case of `COc1ccc(S(=O)(=O)n2ccn(-c3ccc(Oc4ccccc4)cc3)c2=O)cc1OC` [CBK106649], the “% of control remaining” value is reported as 100%. In the case of `COc1cccc(Cc2cccc(C3CCN(C(=O)Cc4c[nH]c5ccccc45)CC3)n2)c1` [CBK286145], the “% of control remaining” value is reported as 111.239%. With `CS(=O)(=O)N1CCN(c2ccc(NC(=O)c3ccc(-c4cccc([N+](=O)[O-])c4)o3)cc2)CC1` [CBK268602] the “% of control remaining” value was 145.694%. For `COc1ccc2[nH]c3c(c2c1)CCN(C=O)C31CCN(Cc2cccc(Cl)c2)C1` (stereo not shown) [CBK040376], the “% of control remaining” value was 96.649%. In the case of `Cc1cc(C)n(-c2ccc(CN3C(=O)NC4(CCCC4)C3=O)cc2)n1` [CBK305796], the “% of control remaining” value is reported as 136.426%. `CCSc1nnc2c3c(sc2c1N)CC(C)(C)OC3` [CBK020374] was tested, and the “% of control remaining” value was 166.508%.
